This passage reports binding results from PMC11533501.

Amino acid sequences for entries named in this document (tags omitted).
UniProt Q04477: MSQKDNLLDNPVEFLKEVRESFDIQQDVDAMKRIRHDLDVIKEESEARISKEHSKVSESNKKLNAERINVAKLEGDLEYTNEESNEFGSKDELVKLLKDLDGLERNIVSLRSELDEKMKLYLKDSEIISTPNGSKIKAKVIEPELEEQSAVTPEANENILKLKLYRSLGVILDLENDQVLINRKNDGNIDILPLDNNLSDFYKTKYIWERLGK
UniProt Q8NBT2: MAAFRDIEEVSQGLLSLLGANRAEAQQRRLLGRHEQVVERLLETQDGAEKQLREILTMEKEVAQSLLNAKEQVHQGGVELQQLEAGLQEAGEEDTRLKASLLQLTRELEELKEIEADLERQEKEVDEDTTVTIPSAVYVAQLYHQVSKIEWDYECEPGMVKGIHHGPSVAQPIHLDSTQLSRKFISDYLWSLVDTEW
UniProt P33895: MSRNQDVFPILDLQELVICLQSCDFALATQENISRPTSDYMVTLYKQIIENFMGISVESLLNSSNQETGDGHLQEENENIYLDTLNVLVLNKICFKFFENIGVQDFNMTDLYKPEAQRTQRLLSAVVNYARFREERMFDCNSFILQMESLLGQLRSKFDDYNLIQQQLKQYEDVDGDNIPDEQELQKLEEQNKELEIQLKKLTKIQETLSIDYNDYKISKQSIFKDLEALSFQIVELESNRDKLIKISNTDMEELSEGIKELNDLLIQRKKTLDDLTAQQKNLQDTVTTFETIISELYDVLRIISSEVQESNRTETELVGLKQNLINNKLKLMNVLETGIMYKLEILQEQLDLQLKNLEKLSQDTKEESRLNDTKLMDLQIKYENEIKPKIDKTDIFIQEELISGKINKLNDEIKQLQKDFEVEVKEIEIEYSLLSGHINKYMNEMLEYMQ
UniProt P40460: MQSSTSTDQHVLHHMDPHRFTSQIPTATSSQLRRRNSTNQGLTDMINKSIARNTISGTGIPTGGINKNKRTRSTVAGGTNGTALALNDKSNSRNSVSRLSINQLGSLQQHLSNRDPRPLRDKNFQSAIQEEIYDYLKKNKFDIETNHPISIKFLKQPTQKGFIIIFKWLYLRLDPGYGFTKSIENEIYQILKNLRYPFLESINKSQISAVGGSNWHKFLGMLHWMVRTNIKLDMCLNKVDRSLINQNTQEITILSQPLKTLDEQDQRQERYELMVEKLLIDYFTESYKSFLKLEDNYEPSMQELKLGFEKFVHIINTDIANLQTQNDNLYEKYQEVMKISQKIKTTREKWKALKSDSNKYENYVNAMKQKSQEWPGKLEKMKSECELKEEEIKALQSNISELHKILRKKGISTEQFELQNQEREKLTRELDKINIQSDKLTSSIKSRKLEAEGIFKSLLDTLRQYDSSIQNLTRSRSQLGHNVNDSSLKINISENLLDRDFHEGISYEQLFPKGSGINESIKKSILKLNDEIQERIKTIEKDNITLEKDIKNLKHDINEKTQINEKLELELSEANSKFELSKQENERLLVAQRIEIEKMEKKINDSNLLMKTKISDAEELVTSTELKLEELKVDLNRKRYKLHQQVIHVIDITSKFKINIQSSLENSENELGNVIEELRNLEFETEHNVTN
UniProt Q9HBM1: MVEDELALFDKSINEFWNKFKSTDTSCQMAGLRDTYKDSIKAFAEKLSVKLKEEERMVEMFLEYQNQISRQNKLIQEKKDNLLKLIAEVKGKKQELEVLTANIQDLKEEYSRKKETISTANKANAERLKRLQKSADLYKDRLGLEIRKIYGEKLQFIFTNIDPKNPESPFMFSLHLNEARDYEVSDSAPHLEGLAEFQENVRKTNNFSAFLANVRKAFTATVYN
UniProt Q9BZD4: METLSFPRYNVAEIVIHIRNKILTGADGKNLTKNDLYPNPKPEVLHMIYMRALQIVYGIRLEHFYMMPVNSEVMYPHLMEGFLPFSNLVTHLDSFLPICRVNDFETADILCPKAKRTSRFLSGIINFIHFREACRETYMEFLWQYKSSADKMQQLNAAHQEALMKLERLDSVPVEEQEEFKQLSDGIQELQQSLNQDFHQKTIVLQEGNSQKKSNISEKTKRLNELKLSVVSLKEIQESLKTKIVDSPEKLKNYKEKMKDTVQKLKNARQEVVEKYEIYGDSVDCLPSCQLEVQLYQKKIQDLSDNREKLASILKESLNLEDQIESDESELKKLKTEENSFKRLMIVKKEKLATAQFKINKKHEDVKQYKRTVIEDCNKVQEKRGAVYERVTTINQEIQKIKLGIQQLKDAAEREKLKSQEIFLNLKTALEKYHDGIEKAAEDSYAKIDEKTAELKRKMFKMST
UniProt O14777: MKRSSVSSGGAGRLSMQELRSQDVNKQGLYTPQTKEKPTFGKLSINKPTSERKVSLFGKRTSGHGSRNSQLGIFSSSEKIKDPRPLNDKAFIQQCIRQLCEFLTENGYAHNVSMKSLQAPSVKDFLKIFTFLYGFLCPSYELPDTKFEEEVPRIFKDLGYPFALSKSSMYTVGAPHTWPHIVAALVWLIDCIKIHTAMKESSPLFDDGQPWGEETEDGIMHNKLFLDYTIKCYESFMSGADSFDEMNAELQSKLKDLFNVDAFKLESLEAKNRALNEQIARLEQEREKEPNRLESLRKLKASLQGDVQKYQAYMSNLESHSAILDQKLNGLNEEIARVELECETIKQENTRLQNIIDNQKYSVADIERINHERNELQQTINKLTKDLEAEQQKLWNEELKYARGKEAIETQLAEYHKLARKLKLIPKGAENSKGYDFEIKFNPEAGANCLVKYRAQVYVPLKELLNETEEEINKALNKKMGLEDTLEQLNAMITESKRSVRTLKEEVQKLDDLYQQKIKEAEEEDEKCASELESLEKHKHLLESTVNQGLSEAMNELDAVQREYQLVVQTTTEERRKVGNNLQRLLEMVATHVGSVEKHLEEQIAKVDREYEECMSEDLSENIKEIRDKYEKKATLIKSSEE

The target in assay [1] is His6-tagged Spc24 (yeast Ndc80 complex) (yeast) (UniProt Q04477). The assay can be described thus: co-purification (Ni-NTA affinity, then SEC); four subunits co-expressed in E. coli from two bicistronic plasmids, only Spc24 His6-tagged; Ni-NTA, then Superdex 200 16/60; Coomassie gels in Fig. S5.
Assay [2] concerns the target His6-tagged Spc24 (human Ndc80 complex) (human) (UniProt Q8NBT2). The assay is described as above.

Results are given in words; binding and its absence hold for the method and conditions named. Some results given as binding are weak or reduced against the parent protein; the word gives no strength.

In the case of yeast Nuf2 (from UniProt P33895 1-451), the binding entry in assay [1] is on record as “binds”.

yeast Ndc80 (from UniProt P40460 1-691): the binding result in assay [1] was “binds”.

Consider “Spc25 (human Ndc80 complex) (from UniProt Q9HBM1 1-224)”, for which the binding entry in assay [2] was “binds”.

Turning to human Nuf2 (from UniProt Q9BZD4 1-464), the binding result in assay [2] was “binds”.

On to human Hec1 (from UniProt O14777 1-642), for which the binding entry in assay [2] is listed as “binds”.
